Measured data: PubChem BioAssay AID1159584 (Peter MacCallum Cancer Centre, 2016)
Screen: 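Genes whose loss is lethal only together with E-cadherin loss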 (primary screen). Cells: human MCF10A breast epithelial cells, parental and CDH1-null. Reagent: siRNA against human genes. Measured: 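ATP luminescence (CellTiter-Glo) viability per line relative to mean mock wells over all plates, and the ratio of CDH1-null to parental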. Direction: CDH1-null / parental viability ratio: higher = CDH1-null cells survive relatively better than parental; CDH1-null viability vs mock: higher = more viable CDH1-null cells.
Here is a random part of about 18,000 reagents. The numbers tell different reagents against one gene apart. Not all columns of the deposit are shown. The record does not give: the amount of reagent, the time to read-out.

target	reagent	CDH1-null / parental viability ratio	CDH1-null viability vs mock (fraction of mock)
EMC1 (ER membrane protein complex subunit 1)	1	1.03	0.92
SMIM21 (small integral membrane protein 21)	1	0.91	0.74
NRBP2 (nuclear receptor binding protein 2)	1	0.92	0.89
ARHGEF6 (Rac/Cdc42 guanine nucleotide exchange factor 6)	1	0.98	0.92
IFITM5 (interferon induced transmembrane protein 5)	1	1.2	1.06
CCDC187 (coiled-coil domain containing 187)	1	1.07	0.94
CCDC97 (coiled-coil domain containing 97)	1	1.04	0.79
HEPH (hephaestin)	1	1.19	0.94
STT3B (STT3 oligosaccharyltransferase complex catalytic subunit B)	1	1.15	0.9
APCDD1 (APC down-regulated 1)	1	0.98	0.56
ARMC12 (armadillo repeat containing 12)	1	0.9	0.72
TMEM65 (transmembrane protein 65)	1	1	0.82
RBFOX3 (RNA binding fox-1 homolog 3)	1	0.85	0.68
RBFOX3 (RNA binding fox-1 homolog 3)	2	1.13	1.01
HSD11B1L (hydroxysteroid 11-beta dehydrogenase 1 like)	1	0.86	0.54
PTPRR (protein tyrosine phosphatase receptor type R)	1	1.42	0.88
AEN (apoptosis enhancing nuclease)	1	0.94	0.8
STX7 (syntaxin 7)	1	0.95	0.78
SEH1L (SEH1 like nucleoporin)	1	1	0.42
CEP126 (centrosomal protein 126)	1	1.29	1.28
CCDC171 (coiled-coil domain containing 171)	1	0.91	0.58
ALG11 (ALG11 alpha-1,2-mannosyltransferase)	1	0.95	0.74
CFAP298 (cilia and flagella associated protein 298)	1	1.08	1.19
EIF2B4 (eukaryotic translation initiation factor 2B subunit delta)	1	1.08	0.82
KCNK15 (potassium two pore domain channel subfamily K member 15)	1	1.2	1.01
CRB2 (crumbs cell polarity complex component 2)	1	0.94	0.72
MRPL2 (mitochondrial ribosomal protein L2)	1	0.71	0.44
RAB11FIP2 (RAB11 family interacting protein 2)	1	0.93	0.62
MCOLN2 (mucolipin TRP cation channel 2)	1	1.26	0.88
SKA2 (spindle and kinetochore associated complex subunit 2)	1	1.15	1.29
ENGASE (endo-beta-N-acetylglucosaminidase)	1	0.76	0.53
COMP (cartilage oligomeric matrix protein)	1	1.28	0.6
ACAP2 (ArfGAP with coiled-coil, ankyrin repeat and PH domains 2)	1	1.05	0.92
TTF2 (transcription termination factor 2)	1	1.05	0.92

Quoted from the listing for reference:
target	reagent	CDH1-null / parental viability ratio	CDH1-null viability vs mock (fraction of mock)
RAB11FIP2 (RAB11 family interacting protein 2)	1	0.93	0.62
MCOLN2 (mucolipin TRP cation channel 2)	1	1.26	0.88
SKA2 (spindle and kinetochore associated complex subunit 2)	1	1.15	1.29
ENGASE (endo-beta-N-acetylglucosaminidase)	1	0.76	0.53

Next entries follow.
target	reagent	CDH1-null / parental viability ratio	CDH1-null viability vs mock (fraction of mock)
RAB11FIP3 (RAB11 family interacting protein 3)	1	0.88	0.44
CDH3 (cadherin 3)	1	0.87	0.76
TSGA10IP (testis specific 10 interacting protein)	1	0.91	0.87
PLA2G2D (phospholipase A2 group IID)	1	1.36	1.36
PER2 (period circadian regulator 2)	1	0.73	0.66
ADAMTS4 (ADAM metallopeptidase with thrombospondin type 1 motif 4)	1	1.16	0.8
ID4 (inhibitor of DNA binding 4)	1	0.86	0.6
DUSP19 (dual specificity phosphatase 19)	1	1.34	1.02
TMX2 (thioredoxin related transmembrane protein 2)	1	0.93	0.99
CABLES2 (Cdk5 and Abl enzyme substrate 2)	1	1.25	1.25
TTC27 (tetratricopeptide repeat domain 27)	1	0.8	0.74
TTC9C (tetratricopeptide repeat domain 9C)	1	0.67	0.35
MPP4 (MAGUK p55 scaffold protein 4)	1	0.71	0.48
CASP9 (caspase 9)	1	1.03	0.66
SATB2 (SATB homeobox 2)	1	1.01	0.92
CTSG (cathepsin G)	1	1.04	0.8
ADAT3 (adenosine deaminase tRNA specific 3)	1	0.84	0.52
HCFC1R1 (host cell factor C1 regulator 1)	1	0.85	0.41
FLNA (filamin A)	1	1.1	0.68
TMPRSS6 (transmembrane serine protease 6)	1	1.06	1
HEPN1 (hepatocellular carcinoma, down-regulated 1)	1	1.12	0.95
TBX1 (T-box transcription factor 1)	1	1.38	1.19
FANCI (FA complementation group I)	1	1.11	0.78
PREP (prolyl endopeptidase)	1	1.13	0.78
ZKSCAN1 (zinc finger with KRAB and SCAN domains 1)	1	0.88	0.78
KLRG1 (killer cell lectin like receptor G1)	1	0.92	0.7
GNB2 (G protein subunit beta 2)	1	1.11	1.05
HBD (hemoglobin subunit delta)	1	0.95	0.81
RPL23 (ribosomal protein L23)	1	1.31	0.34
TMPO (thymopoietin)	1	0.98	0.78
DUS4L (dihydrouridine synthase 4 like)	1	1.02	0.82
ZNF621 (zinc finger protein 621)	1	1.11	0.98
CA5B (carbonic anhydrase 5B)	1	0.84	0.74
FBL (fibrillarin rRNA 2'-O-methyltransferase)	1	1.21	0.64
